The values that follow come from article PMC11024185.

Changes are numbered by the printed parent chain. These are yes or no findings as the source states them, for the method shown. In cells and extracts the contact can be indirect. A yes stands for co-enrichment or nearness to the bait. Other partners may have been found. Sequences can lack the tags named with a protein.

In assay [1] the target is T1, Dbp10 (wild type, overexpressed, N-terminal 3xStrep-sfGFP-bdNEDD-MYC tag) (S. cerevisiae) (UniProt Q12389).
T1 sequence: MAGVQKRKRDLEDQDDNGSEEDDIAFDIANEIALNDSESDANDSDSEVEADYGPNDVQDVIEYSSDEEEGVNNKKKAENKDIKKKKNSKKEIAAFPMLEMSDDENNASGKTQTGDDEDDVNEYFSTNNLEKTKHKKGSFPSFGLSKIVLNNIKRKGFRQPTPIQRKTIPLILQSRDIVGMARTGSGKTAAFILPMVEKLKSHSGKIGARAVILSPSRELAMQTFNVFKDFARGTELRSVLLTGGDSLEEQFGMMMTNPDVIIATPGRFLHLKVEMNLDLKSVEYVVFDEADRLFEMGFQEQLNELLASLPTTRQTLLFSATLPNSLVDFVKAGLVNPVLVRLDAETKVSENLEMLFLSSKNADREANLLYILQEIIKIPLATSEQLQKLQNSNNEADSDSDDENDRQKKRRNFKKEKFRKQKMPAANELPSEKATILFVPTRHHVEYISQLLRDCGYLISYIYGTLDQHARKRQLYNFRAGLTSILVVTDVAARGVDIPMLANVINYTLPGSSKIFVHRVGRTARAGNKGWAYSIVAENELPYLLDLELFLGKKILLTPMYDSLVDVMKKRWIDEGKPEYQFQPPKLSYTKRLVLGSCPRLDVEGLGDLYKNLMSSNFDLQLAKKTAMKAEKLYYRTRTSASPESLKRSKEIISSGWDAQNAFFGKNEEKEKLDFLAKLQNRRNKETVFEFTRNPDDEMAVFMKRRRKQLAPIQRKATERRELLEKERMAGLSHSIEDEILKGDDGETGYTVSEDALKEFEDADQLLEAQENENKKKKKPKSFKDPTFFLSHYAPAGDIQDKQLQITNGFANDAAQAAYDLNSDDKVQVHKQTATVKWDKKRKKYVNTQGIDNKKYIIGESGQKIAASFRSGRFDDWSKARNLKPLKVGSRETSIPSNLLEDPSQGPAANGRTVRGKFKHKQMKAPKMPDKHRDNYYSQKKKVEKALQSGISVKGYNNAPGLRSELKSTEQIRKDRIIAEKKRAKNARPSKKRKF
The assay can be described thus: affinity purification with mass spectrometry; split tags on Brx1 and Dbp10 from yeast lysate after β-estradiol-induced overexpression of DBP10 or dbp10^R522V: IgG Sepharose (Brx1-2xProteinA), 3C protease cleavage, Strep-Tactin (Dbp10), elution with bdNEDD8 protease; Ribo-buffer (50 mM Bis-Tris-Propane HCl pH 8.0, 125 mM NaCl, 25 mM KCl, 10 mM MgCl2, 1 mM TCEP, NP-40); semi-quantitative mass spectrometry of pre-60S particles.

Assay [2] has as its target T2, Dbp10^R522V (slow-hydrolysis mutant, overexpressed, N-terminal 3xStrep-sfGFP-bdNEDD-MYC tag) (S. cerevisiae) (UniProt Q12389).
T2 sequence: T1 sequence with R522V
Described as above.

B1: Noc2 (endogenous) (protein, UniProt P39744 1-710)
chain: MGKVSKSTKKFQSKHLKHTLDQRRKEKIQKKRIQGRRGNKTDQEKADAAGTREQQQLKKSAKEEVFKDMSVETFFEKGIEIPKENKKLKKKTTKEQSDEDSSSSEEEEDMGQSMAKLAEKDPEFYKYLEENDKDLLDFAGTNPLDGIDSQDEGEDAERNSNIEEKSEQMELEKEKIELSLKLVRKWKKQLHDSPSLKLLRNIISAFKVAVNLNKEENIEDYKYAITDEKAFHELMFMVLKDVPQAIQKMAPYKIVKGARTLPNGGNVSRVSSIVKSHAGSLLILLNDITNTETAALVLHSVNELMPYLLSYRRILKELIKSIVGVWSTTRELETQIASFAFLINTTKEFKKSMLETTLKTTYSTFIKSCRKTNMRSMPLINFQKNSAAELFGIDEVLGYQVGFEYIRQLAIHLRNTMNATTKKSSKINSAEAYKIVYNWQFCHSLDFWSRVLSFACQPEKENGSESPLRQLIYPLVQVTLGVIRLIPTPQFFPLRFYLIKSLIRLSQNSGVFIPIYPLLSEILTSTAFTKAPKKSPNLAAFDFEHNIKCTQAYLNTKIYQEGLSEQFVDLLGDYFALYCKNIAFPELVTPVIISLRRYIKTSTNVKLNKRLSTVVEKLNQNSTFIQEKRSDVEFGPTNKSEVSRFLNDVAWNKTPLGSYVAVQREVKEEKARLMRESMEEQDKERETEEAKLLNSLESDDDNEDVEMSDA
For the molecule B1, the binding result in assay [1] and in assay [2] was “binds” each time.

B2: Brx1 (genomic C-terminal 3xFLAG-3C-2xProteinA tag) (protein, UniProt Q08235 1-291)
chain: MSSIYKALAGKSKDNKSEKKQGNVKQFMNKQRTLLISSRGVNYRHRHLIQDLSGLLPHSRKEPKLDTKKDLQQLNEIAELYNCNNVLFFEARKHQDLYLWLSKPPNGPTIKFYIQNLHTMDELNFTGNCLKGSRPVLSFDQRFESSPHYQLIKELLVHNFGVPPNARKSKPFIDHVMSFSIVDDKIWVRTYEISHSTKNKEEYEDGEEDISLVEIGPRFVMTVILILEGSFGGPKIYENKQYVSPNVVRAQIKQQAAEEAKSRAEAAVERKIKRRENVLAADPLSNDALFK
Take B2: the binding result in assay [1] and in assay [2] was “binds” in each case.

B3: Rrp15 (protein, UniProt Q06511 1-250)
chain: MGSKHRVDTKDKKRTRKNAEFGREKRNSGNQELSNEPEKDTIMEGDEAEEDEQNSSSDESSKIIDNEQSDAEEDDDEEEEDDDFPRKKKSKNSKHDDGSTGFSAAVNAILSSHLKAYDRKDPIMARNKKVLKQSESEKLEYKAKKALLAEKKKLLGKARKTDIIPIASGEDRSENIRKVLEKETALRKIAQKGAVKLFNAILATQVKTEKEVSENLSEIKNKEEKKELITEVSKEKFLDLVKAAAGSDNE
As for B3, the binding result in assay [1] and in assay [2] was “binds” in each case.

B4: Ssf1 (endogenous) (protein, UniProt P38789 1-453)
chain: MAKRRQKKRTHAQLTPEQEQGIPKSMVIRVGQTSLANHSLNQLVKDFRQIMQPHTAIKLKERKSNKLKDFVVMCGPLGVTHLFMFTQSEKTGNVSLKIARTPQGPTVTFQVLDYSLGRDIKKFLKRPKSLNNDDVLNPPLLVLNGFSTSKRSGEDDQDVNVEKVIVSMFQNIFPPLNPARTSLNSIKRVFMINKDRETGEISMRHYFIDIREVEISRNLKRLYKAKNNLSKTVPNLHRKEDISSLILDHDLGAYTSESEIEDDAIVRVVDNQDVKAKHSQSLKSQRTPVEKKDNKEREKETEEEDVEMEEPKPSENLQPTPRKKAIKLTELGPRLTLKLVKIEEGICSGKVLHHEFVQKSSEEIKALEKRHAAKMRLKEQRKKEQEENIAKKKAVKDAKKQRKLERRKARAAEGGEGQGKDDAMSDDESSSSDSEHYGSVPEDLDSDLFSEVE
In the case of B4, the binding result in assay [1] and in assay [2] was “binds” throughout.

B5: Nug1 (protein, UniProt P40010 1-520)
chain: MRVRKRQSRRTSTKLKEGIKKKASAHRKKEKKMAKKDVTWRSRSKKDPGIPSNFPYKAKILEEIEAKKMKDLEERELAKQQRLEARKAAKEQGVDAMDEDMIEDDENGLAALVESAQQAAAEYEGTPSNDADVRDDELDVIDYNIDFYGEDVEGESELEKSRKAYDKIFKSVIDASDVILYVLDARDPESTRSRKVEEAVLQSQGKRLILILNKVDLIPPHVLEQWLNYLKSSFPTIPLRASSGAVNGTSFNRKLSQTTTASALLESLKTYSNNSNLKRSIVVGVIGYPNVGKSSVINALLARRGGQSKACPVGNEAGVTTSLREIKIDNKLKILDSPGICFPSENKKRSKVEHEAELALLNALPAKHIVDPYPAVLMLVKRLAKSDEMTESFKKLYEIPPIPANDADTFTKHFLIHVARKRGRLGKGGIPNLASAGLSVLNDWRDGKILGWVLPNTSAAASQQDKQNLSTINTGTKQAPIAANESTIVSEWSKEFDLDGLFSSLDKAIDASKDQDTMME
For the molecule B5, the binding entry in assay [1] and in assay [2] was “binds” in each case.
